Results taken from publication PMC4711005.
These are yes or no findings as the source states them, for the method shown. For some of these results: In cells and extracts the contact can be indirect. Some entries that bind do so weakly or less than the wild type. For some of these results: Sequences can lack the tags named with a protein. Values belong to the substance of their own block, whether it stands above or below them.

Protein sequences, listed by entry. Tags and fused reporters are not part of them.
UniProt Q5S006: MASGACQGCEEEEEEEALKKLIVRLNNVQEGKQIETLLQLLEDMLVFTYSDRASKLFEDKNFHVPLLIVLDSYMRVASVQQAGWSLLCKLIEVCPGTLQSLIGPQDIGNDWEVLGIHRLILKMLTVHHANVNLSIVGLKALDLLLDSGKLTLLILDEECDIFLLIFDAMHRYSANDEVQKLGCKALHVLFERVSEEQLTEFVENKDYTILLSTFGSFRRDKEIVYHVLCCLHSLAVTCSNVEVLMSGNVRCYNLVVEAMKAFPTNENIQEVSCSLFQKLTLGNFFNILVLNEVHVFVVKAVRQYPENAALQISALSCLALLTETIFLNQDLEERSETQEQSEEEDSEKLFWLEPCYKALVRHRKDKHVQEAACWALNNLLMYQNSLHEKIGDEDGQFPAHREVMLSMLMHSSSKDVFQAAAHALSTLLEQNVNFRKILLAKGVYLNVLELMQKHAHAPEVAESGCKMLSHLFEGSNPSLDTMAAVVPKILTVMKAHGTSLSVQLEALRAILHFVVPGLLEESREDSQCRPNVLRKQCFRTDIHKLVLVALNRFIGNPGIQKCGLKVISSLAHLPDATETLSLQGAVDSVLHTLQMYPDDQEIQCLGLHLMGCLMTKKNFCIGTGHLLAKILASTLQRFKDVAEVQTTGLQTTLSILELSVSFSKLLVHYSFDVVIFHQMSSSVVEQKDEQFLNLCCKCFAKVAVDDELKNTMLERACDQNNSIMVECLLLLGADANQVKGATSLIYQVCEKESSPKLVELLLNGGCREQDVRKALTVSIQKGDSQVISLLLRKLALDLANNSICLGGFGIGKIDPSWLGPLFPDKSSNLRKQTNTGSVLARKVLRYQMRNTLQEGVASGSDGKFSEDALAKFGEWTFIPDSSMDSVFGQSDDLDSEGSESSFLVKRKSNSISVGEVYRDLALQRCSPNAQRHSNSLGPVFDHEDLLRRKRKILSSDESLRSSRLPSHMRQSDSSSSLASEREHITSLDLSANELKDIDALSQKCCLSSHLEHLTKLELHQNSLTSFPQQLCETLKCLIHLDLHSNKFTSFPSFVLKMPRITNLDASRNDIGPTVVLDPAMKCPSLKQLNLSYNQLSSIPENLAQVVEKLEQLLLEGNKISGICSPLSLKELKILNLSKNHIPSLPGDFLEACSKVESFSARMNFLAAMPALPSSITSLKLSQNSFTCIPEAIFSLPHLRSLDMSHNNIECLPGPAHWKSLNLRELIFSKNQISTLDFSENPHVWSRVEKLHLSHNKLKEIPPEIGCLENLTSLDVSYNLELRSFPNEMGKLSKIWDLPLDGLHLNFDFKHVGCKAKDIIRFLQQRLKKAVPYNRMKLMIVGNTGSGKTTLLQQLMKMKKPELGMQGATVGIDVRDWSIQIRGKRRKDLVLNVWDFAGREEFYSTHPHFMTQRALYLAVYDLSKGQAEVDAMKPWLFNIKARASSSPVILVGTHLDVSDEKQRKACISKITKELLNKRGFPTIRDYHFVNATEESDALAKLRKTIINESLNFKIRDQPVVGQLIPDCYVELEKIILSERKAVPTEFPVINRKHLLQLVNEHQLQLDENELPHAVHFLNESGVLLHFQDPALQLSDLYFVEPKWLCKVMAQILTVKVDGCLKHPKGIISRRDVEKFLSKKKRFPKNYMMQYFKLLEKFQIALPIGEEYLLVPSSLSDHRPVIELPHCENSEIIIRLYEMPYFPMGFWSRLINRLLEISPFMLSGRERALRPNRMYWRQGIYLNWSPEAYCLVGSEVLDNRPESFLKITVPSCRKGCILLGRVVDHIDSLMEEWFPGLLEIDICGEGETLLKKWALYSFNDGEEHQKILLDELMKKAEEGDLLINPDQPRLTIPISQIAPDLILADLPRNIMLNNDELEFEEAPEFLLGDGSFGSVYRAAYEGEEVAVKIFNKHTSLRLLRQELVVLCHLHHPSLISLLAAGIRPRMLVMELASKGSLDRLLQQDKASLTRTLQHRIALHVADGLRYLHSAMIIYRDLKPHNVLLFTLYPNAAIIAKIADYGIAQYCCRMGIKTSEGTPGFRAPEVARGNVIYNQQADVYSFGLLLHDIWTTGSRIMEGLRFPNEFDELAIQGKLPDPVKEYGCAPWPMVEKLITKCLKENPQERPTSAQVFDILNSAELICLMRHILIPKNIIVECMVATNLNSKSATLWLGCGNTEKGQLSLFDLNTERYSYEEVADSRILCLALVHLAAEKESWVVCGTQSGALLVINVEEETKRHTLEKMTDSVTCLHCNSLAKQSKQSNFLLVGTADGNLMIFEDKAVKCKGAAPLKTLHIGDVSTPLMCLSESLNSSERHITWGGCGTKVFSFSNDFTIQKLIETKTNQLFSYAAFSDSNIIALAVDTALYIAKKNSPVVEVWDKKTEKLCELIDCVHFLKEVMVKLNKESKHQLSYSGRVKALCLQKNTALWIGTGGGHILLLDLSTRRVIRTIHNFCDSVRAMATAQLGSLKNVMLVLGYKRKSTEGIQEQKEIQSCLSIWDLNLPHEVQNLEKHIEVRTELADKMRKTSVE
UniProt Q5S007: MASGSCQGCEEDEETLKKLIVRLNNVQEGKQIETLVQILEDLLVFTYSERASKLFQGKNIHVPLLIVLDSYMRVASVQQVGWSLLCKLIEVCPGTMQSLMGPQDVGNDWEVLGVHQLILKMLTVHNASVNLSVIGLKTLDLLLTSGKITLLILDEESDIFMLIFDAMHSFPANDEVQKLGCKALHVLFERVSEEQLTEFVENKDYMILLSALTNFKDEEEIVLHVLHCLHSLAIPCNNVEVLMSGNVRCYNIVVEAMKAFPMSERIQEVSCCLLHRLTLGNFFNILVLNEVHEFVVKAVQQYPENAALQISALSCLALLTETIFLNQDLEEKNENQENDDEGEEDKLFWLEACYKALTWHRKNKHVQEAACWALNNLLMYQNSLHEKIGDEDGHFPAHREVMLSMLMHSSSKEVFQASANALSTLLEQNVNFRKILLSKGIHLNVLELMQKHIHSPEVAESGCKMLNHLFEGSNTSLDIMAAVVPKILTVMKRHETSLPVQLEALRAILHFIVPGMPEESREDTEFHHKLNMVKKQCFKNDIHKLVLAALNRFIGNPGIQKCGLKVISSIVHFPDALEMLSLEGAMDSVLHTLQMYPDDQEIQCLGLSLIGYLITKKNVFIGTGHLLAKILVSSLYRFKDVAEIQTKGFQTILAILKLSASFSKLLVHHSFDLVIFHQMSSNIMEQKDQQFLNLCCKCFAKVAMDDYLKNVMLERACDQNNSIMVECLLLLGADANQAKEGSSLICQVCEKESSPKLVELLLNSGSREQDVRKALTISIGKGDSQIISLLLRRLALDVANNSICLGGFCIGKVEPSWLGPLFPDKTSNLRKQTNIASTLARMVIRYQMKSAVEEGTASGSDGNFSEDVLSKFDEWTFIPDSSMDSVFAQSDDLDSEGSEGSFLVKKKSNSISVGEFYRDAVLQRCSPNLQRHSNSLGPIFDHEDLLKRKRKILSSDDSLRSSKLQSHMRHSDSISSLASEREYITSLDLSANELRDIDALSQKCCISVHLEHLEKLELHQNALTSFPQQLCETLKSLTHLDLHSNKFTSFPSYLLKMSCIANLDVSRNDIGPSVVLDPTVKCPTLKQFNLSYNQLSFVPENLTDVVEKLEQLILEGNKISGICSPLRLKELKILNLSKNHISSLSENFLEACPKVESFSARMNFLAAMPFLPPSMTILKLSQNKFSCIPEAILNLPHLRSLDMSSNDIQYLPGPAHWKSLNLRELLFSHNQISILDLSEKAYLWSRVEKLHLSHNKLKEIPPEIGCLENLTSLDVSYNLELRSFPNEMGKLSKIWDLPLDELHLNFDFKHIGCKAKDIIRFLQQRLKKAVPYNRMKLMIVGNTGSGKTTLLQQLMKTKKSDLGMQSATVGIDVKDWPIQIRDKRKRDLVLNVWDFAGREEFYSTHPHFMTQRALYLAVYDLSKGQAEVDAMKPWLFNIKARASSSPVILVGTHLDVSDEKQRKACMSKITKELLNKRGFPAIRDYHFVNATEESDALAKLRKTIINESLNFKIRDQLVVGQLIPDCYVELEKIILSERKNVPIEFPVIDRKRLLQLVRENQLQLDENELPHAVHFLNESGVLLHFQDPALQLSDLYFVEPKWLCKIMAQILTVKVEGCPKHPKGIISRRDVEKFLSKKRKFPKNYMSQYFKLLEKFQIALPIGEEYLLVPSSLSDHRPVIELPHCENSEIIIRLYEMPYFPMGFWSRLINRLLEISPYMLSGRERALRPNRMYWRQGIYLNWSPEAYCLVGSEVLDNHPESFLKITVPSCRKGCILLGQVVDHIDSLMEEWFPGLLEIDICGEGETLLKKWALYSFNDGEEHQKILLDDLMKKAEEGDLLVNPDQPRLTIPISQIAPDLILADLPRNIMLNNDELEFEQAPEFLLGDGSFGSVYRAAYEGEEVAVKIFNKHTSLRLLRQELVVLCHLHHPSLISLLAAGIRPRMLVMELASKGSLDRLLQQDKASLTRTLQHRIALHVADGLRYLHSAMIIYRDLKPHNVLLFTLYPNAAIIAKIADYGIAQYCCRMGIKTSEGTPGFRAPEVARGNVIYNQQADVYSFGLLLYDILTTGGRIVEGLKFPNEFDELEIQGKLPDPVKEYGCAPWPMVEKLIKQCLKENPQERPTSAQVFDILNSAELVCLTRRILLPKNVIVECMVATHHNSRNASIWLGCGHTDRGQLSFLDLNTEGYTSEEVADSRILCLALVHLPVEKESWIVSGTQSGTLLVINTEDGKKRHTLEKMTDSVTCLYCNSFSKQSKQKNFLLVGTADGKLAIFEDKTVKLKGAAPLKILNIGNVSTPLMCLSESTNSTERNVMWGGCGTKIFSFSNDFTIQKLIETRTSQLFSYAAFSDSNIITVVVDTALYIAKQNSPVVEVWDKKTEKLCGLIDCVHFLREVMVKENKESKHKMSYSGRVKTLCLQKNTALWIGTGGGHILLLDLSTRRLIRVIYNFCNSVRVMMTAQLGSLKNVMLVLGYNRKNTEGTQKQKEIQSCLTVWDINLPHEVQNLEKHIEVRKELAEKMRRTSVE

Columns and labels:
[1] = target: T1, Flag-NSF N domain (aa 1-205) (human) (UniProt P46459); assay: pull-down; Flag-NSF full-length or domains purified from HEK293T and bound to M2 Flag resin, adjusted to 2 μM, incubated with 600 μl mouse brain lysate (2.5 mg/ml) overnight at 4 °C; immunoblot with anti-LRRK2 (MJFF2); only the target purified
T1 sequence: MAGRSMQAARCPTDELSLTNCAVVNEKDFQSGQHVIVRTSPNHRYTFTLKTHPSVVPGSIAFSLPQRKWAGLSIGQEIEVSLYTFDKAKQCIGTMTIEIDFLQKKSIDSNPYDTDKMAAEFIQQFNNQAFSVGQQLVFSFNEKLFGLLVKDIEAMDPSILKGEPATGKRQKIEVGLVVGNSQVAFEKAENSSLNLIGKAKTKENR

[2] = target: Flag-NSF full-length (human, aa 1-744) (human) (UniProt P46459); assay: as above
[3] = target: Flag-NSF full-length (human, aa 1-744) (human) (UniProt P46459); assay: co-IP; Flag-NSF purified from transfected HEK293T lysate with anti-Flag M2 affinity gel; a band of endogenous NSF is found with it
[4] = target: Flag-NSF full-length (human, aa 1-744) (human) (UniProt P46459); assay: SEC; HEK293T lysates with Flag-NSF alone or with 2xMyc-LRRK2 separated on Superose 6 10/300 in 20 mM Tris-HCl pH 7.5, 150 mM NaCl, 0.06 % Triton X-100; fractions analysed by dot blot with anti-Flag

binding [1]: binds | binding [2]: binds
Substance: LRRK2, endogenous, mouse brain lysate (from UniProt Q5S006 1-2527)

binding [3]: binds
Substance: NSF, endogenous, HEK293T cells (from UniProt P46459 1-744)

binding [4]: binds
Substance: 2xMyc-LRRK2 (from UniProt Q5S007 1-2527) (enzyme)
